# Data from the supplement of paper PMC10849652.
# By UniProt entry, the sequences of proteins in these tests, tags left out. Where a name states a change or a piece, a line headed by the entry shows the natural chain unless it says otherwise.
# UniProt Q7Z7E8: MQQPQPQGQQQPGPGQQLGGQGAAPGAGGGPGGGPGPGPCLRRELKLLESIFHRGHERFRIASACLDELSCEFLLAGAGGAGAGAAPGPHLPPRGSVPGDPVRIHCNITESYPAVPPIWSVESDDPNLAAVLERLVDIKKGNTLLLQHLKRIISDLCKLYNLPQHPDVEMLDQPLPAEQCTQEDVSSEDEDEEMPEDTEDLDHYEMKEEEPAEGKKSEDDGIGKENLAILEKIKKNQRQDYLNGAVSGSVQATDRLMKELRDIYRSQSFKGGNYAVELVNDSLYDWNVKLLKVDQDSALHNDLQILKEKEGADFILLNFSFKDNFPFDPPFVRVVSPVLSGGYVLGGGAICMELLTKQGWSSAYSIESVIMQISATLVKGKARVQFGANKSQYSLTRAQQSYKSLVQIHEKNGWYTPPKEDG
# UniProt P43897: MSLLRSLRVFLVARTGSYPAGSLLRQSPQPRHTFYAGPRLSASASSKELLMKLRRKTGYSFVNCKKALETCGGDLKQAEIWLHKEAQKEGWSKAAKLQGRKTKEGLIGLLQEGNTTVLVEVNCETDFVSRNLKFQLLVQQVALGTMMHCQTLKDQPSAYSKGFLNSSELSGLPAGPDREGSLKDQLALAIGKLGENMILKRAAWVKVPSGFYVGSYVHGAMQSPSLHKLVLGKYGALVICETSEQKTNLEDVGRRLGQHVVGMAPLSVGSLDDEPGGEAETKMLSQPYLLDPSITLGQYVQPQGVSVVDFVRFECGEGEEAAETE
# UniProt Q99816: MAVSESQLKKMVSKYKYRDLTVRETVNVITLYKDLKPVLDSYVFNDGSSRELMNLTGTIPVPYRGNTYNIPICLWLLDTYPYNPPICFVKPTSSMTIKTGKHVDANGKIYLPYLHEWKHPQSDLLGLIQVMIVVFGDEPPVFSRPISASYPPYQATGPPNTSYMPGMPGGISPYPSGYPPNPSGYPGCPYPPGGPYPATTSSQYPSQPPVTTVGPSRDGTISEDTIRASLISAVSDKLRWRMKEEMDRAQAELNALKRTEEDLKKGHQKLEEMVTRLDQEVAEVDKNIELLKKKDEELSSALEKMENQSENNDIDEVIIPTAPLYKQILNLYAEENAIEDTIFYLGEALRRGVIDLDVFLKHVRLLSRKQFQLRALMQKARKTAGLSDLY
# UniProt P68366, whole entry, looked up: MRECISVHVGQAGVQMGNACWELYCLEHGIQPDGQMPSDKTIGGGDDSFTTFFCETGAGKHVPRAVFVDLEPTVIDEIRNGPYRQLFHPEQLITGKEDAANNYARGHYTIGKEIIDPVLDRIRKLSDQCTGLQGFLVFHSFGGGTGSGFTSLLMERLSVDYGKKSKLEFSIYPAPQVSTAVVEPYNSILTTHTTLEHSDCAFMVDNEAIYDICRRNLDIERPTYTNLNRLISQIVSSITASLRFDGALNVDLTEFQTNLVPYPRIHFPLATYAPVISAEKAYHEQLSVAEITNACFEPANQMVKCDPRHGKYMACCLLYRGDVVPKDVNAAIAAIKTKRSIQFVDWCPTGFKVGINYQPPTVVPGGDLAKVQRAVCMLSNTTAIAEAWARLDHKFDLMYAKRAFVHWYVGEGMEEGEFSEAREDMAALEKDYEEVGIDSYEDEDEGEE
# UniProt Q8TBC4: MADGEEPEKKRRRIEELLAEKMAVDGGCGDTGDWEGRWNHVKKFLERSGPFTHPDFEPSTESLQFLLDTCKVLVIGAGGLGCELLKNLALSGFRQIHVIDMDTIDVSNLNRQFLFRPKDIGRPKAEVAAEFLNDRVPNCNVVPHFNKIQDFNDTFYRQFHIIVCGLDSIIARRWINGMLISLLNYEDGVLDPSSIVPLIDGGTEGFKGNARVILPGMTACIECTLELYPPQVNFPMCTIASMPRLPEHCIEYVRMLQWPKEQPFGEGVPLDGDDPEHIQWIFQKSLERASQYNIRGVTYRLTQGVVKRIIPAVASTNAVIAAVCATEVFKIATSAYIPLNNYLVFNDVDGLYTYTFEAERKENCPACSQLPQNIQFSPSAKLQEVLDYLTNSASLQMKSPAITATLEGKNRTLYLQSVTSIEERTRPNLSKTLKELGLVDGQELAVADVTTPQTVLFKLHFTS
# UniProt A6NHL2: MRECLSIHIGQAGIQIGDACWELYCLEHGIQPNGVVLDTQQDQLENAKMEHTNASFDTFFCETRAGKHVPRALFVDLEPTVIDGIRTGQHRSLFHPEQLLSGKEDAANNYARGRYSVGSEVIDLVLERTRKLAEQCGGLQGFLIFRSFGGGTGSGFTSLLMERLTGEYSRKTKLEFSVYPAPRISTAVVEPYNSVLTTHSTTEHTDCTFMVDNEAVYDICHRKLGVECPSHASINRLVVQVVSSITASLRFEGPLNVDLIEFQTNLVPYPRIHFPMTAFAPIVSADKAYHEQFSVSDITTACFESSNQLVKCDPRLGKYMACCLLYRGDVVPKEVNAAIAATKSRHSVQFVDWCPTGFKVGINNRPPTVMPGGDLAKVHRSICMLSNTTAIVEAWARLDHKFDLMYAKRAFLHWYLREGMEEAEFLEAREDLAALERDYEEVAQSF
# UniProt Q9UJK0: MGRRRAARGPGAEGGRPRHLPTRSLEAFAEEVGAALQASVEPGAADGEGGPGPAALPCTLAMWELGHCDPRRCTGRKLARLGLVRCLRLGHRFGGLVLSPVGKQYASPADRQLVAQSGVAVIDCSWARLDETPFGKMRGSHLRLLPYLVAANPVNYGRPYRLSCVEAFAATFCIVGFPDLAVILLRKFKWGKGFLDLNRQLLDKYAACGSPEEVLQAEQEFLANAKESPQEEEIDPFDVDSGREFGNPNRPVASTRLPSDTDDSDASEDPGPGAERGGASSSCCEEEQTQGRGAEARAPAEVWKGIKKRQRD
# UniProt Q14157: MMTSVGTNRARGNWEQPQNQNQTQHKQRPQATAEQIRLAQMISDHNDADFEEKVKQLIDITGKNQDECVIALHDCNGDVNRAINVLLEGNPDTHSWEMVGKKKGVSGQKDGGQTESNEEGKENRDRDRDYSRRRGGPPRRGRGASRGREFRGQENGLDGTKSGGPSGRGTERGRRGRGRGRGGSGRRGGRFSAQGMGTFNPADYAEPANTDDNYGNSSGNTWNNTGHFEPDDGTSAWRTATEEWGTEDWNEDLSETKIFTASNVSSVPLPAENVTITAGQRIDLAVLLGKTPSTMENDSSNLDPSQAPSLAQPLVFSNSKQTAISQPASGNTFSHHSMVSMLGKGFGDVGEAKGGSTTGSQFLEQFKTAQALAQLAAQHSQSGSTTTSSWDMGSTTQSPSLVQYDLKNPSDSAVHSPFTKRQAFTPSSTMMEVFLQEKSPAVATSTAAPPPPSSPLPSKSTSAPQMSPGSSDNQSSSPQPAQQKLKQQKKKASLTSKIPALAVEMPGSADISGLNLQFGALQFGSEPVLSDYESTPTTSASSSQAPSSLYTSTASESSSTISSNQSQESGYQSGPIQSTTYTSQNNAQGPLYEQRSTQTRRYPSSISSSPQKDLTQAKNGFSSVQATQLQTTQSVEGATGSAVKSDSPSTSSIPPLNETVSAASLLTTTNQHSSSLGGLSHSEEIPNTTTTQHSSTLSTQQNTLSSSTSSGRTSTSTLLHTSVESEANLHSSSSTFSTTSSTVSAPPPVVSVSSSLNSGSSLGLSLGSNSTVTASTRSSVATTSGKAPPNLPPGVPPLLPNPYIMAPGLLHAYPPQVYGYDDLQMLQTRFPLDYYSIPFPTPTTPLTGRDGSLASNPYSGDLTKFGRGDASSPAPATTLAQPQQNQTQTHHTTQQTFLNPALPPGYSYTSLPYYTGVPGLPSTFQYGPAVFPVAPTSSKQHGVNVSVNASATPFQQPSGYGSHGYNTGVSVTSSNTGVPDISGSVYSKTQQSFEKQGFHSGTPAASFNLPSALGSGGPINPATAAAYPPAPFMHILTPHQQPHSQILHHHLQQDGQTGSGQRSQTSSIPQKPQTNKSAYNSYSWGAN
# UniProt Q9H3M7: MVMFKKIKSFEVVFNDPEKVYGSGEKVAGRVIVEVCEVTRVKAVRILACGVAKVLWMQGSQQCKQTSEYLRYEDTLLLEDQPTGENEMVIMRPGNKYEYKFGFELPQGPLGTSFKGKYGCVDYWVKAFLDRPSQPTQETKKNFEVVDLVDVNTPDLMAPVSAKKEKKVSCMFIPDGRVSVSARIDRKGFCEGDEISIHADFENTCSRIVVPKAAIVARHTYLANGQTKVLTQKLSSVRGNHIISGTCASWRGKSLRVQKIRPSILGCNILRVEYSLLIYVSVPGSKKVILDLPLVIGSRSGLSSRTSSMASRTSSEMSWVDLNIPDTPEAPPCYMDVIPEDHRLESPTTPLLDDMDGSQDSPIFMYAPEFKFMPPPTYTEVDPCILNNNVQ
# This is one part of the list.
# How the values were obtained:
# Assay in all cases: log2 fold change, soluble protein after heating vs DMSO (PISA); higher = thermal stabilisation; K562 cells, 10 uM, 30 min; active = over 0.2 and 3.5 SD of the protein, either way, in both replicates (recomputed)
# [1] = compound: CC1=C(C=C(C=C1)NC(=O)C2=CC(=CC=C2)C(C)(C)C#N)NC3=CC4=C(C=C3)N=CN(C4=O)C
# Summary of the method: (§1)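 Values are thermal stability changes relative to control samples and are taken from duplicates. They are stated as log2 fold changes. Before quantification by TMTpro 16plex LC-MS/MS with equalised channel sums, K562 cells at 2×10^6 cells/mL were treated with 10 μM compound for 30 min, heated in aliquots for 3 min across 48°C-58°C, pooled, extracted in PBS with 0.5% NP-40 at 4°C, and centrifuged at 21,000xg for 90 min to give the soluble supernatant.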
# [2] = compound: CC1=C(C=C(C=C1)NC(=O)C2=CC(=CC=C2)N(C)C)NC(=O)C3=CC=C(C=C3)O
# Summary of the method: as §1
# [3] = compound: CC1=CC=C(C=C1)SC2=C3C=C(SC3=CN=C2)C(=O)N
# Summary of the method: as §1
# [4] = compound: CC1=NC(=CC=C1)C2=C(N=C(N2)C(C)(C)C)C3=CC4=NC=CN=C4C=C3
# Summary of the method: as §1
# Nexturastat A = compound: CCCCN(Cc1ccc(C(=O)NO)cc1)C(=O)Nc1ccccc1 [Nexturastat A]
# Summary of the method: as §1
# vemurafenib = compound: CCCS(=O)(=O)Nc1ccc(F)c(C(=O)c2c[nH]c3ncc(-c4ccc(Cl)cc4)cc23)c1F [vemurafenib]
# Summary of the method: as §1
# [5] = compound: CCCS(=O)(=O)Nc1ccc(F)c(C(=O)c2c[nH]c3ncc(Cl)cc23)c1F
# Summary of the method: as §1
# [6] = compound: CCCc1cc(C)[nH]c(=O)c1CNC(=O)c1cc(-c2ccnc(N3CCN(C)CC3)c2)cc2c1cnn2C(C)C
# Summary of the method: as §1
# givinostat = compound: CCN(CC)Cc1ccc2cc(COC(=O)Nc3ccc(C(=O)NO)cc3)ccc2c1 [givinostat]
# Summary of the method: as §1
# barasertib = compound: CCN(CCCOc1ccc2c(Nc3cc(CC(=O)Nc4cccc(F)c4)[nH]n3)ncnc2c1)CCOP(=O)(O)O [barasertib]
# Summary of the method: as §1
# [7] = compound: CC[C@@H]1C(=O)N(C)c2cnc(Nc3ccc(C(=O)NC4CCN(C)CC4)cc3OC)nc2N1C1CCCC1
# Summary of the method: as §1
# volasertib = compound: CC[C@@H]1C(=O)N(C)c2cnc(Nc3ccc(C(=O)N[C@H]4CC[C@H](N5CCN(CC6CC6)CC5)CC4)cc3OC)nc2N1C(C)C [volasertib]
# Summary of the method: as §1
# [8] = compound: CC[C@H](C)N1C=C(C2=C(C=C(C=C21)C3=CN=C(C=C3)N4CCNCC4)C(=O)NCC5=C(C=C(NC5=O)C)C)C
# Summary of the method: as §1
# epoxomicin = compound: CC[C@H](C)[C@@H](C(=O)N[C@@H]([C@@H](C)O)C(=O)N[C@@H](CC(C)C)C(=O)[C@]1(CO1)C)NC(=O)[C@H]([C@@H](C)CC)N(C)C(=O)C [epoxomicin]
# Summary of the method: as §1
# [9] = compound: CCn1cc(-c2ccnc3[nH]c(-c4cccc(CN(C)C)c4)cc23)c(-c2ccc(NC(=O)N(C)C)cc2)n1
# Summary of the method: as §1
# [10] = compound: CN(C)CC(=O)Nc1ccc2[nH]c(=O)c3ccccc3c2c1
# Summary of the method: as §1
# [11] = compound: CN1C2=C(C3=C1C(=O)N(N=C3)CC4=CC(=CC=C4)N)SC(=C2)S(=O)C
# Summary of the method: as §1
# [12] = compound: CN1CCC(CNc2ccc3ncc(-c4cccc(OC(F)(F)F)c4)n3n2)CC1
# Summary of the method: as §1
# [13] = compound: CCn1c(C(=O)N(C2CC2)C2CC2)cc2c3c(ncn3C)c(Nc3cc(C)n(C)n3)nc21
# Summary of the method: as §1
# rosiglitazone = compound: CN(CCOC1=CC=C(C=C1)C[C@H]2C(=O)NC(=O)S2)C3=CC=CC=N3 (racemic) [rosiglitazone]
# Summary of the method: as §1
Target,log2 fold change [1],log2 fold change [2],log2 fold change [3],log2 fold change [4],log2 fold change (Nexturastat A),log2 fold change (vemurafenib),log2 fold change [5],log2 fold change [6],log2 fold change (givinostat),log2 fold change (barasertib),log2 fold change [7],log2 fold change (volasertib),log2 fold change [8],log2 fold change (epoxomicin),log2 fold change [9],log2 fold change [10],log2 fold change [11],log2 fold change [12],log2 fold change [13],log2 fold change (rosiglitazone)
UBE2Q1 (UniProt Q7Z7E8),inactive: 0.093,inactive: -0.041,inactive: -0.003,inactive: -0.037,inactive: 0.008,inactive: 0.011,inactive: 0.114,inactive: -0.031,inactive: 0.022,inactive: 0.068,inactive: -0.087,active: -0.295,inactive: 0.015,inactive: -0.042,inactive: -0.048,inactive: 0.027,inactive: -0.007,inactive: -0.212,,
TSFM (UniProt P43897),inactive: 0.253,inactive: -0.167,inactive: 0.021,inactive: 0.11,inactive: -0.057,inactive: 0.08,inactive: 0.034,inactive: 0.181,inactive: 0.041,inactive: 0.075,inactive: -0.003,inactive: -0.092,inactive: 0.046,inactive: 0.212,inactive: 0.074,inactive: 0.081,inactive: -0.041,inactive: -0.056,,
TSG101 (UniProt Q99816),inactive: 0,inactive: -0.011,inactive: -0.001,inactive: 0.025,inactive: -0.017,inactive: 0.021,inactive: 0.024,inactive: -0.057,inactive: 0.035,inactive: 0.046,inactive: -0.137,active: -0.268,inactive: 0.036,inactive: 0.065,inactive: -0.021,inactive: 0.002,inactive: -0.018,inactive: -0.124,,
TUBA4A (UniProt P68366),inactive: 0.005,inactive: 0.004,inactive: 0.061,inactive: 0.04,inactive: -0.03,inactive: 0.005,inactive: 0.068,inactive: -0.004,inactive: 0.014,inactive: -0.002,inactive: -0.024,inactive: -0.01,inactive: 0.007,inactive: 0.055,inactive: -0.064,inactive: -0.013,inactive: -0.168,active: -0.261,,
UBA3 (UniProt Q8TBC4),inactive: 0.04,inactive: -0.001,inactive: 0.009,inactive: 0.014,inactive: -0.092,inactive: 0.043,inactive: 0.019,inactive: -0.016,inactive: -0.038,inactive: 0.012,inactive: -0.064,inactive: -0.031,inactive: 0.083,inactive: 0.08,inactive: -0.106,inactive: 0.046,inactive: -0.094,inactive: -0.193,inactive: -0.073,inactive: 0.083
TUBAL3 (UniProt A6NHL2),inactive: 0.152,inactive: -0.062,inactive: 0.005,inactive: 0.094,inactive: -0.106,inactive: 0.121,inactive: -0.033,inactive: -0.207,inactive: 0.006,inactive: -0.028,inactive: 0.144,inactive: -0.497,inactive: -0.052,inactive: -0.11,inactive: -0.013,inactive: -0.061,inactive: 0.03,inactive: -0.067,,
TSR3 (UniProt Q9UJK0),inactive: -0.034,inactive: -0.004,inactive: -0.02,inactive: -0.053,inactive: 0.132,inactive: -0.036,inactive: -0.036,inactive: 0.017,inactive: -0.02,inactive: 0.029,inactive: 0.121,inactive: 0.093,inactive: -0.042,inactive: -0.054,inactive: 0.048,inactive: -0.057,inactive: 0.092,inactive: 0.103,inactive: 0.008,inactive: -0.023
UBAP2L isoform 5 (UniProt Q14157),inactive: -0.014,inactive: 0.036,inactive: 0.017,inactive: 0.013,inactive: 0.017,inactive: -0.008,inactive: 0.006,inactive: -0.03,inactive: 0.011,inactive: 0.011,inactive: 0.005,inactive: -0.023,inactive: -0.02,inactive: -0.018,inactive: 0.004,inactive: -0.035,inactive: -0.039,inactive: 0.009,,
TXNIP (UniProt Q9H3M7),inactive: -0.04,inactive: 0.003,inactive: -0.115,inactive: 0.034,inactive: 0.177,inactive: -0.005,inactive: -0.079,inactive: 0.001,inactive: -0.06,inactive: 0.033,inactive: 0.112,inactive: 0.021,inactive: 0.053,inactive: 0.054,inactive: -0.066,inactive: -0.026,inactive: -0.07,active: -0.793,,

# Some of the entries so far, with bars between the fields.
Target | log2 fold change [1] | log2 fold change [2] | log2 fold change [3] | log2 fold change [4] | log2 fold change (Nexturastat A) | log2 fold change (vemurafenib) | log2 fold change [5] | log2 fold change [6] | log2 fold change (givinostat) | log2 fold change (barasertib) | log2 fold change [7] | log2 fold change (volasertib) | log2 fold change [8] | log2 fold change (epoxomicin) | log2 fold change [9] | log2 fold change [10] | log2 fold change [11] | log2 fold change [12] | log2 fold change [13] | log2 fold change (rosiglitazone)
UBA3 (UniProt Q8TBC4) | inactive: 0.04 | inactive: -0.001 | inactive: 0.009 | inactive: 0.014 | inactive: -0.092 | inactive: 0.043 | inactive: 0.019 | inactive: -0.016 | inactive: -0.038 | inactive: 0.012 | inactive: -0.064 | inactive: -0.031 | inactive: 0.083 | inactive: 0.08 | inactive: -0.106 | inactive: 0.046 | inactive: -0.094 | inactive: -0.193 | inactive: -0.073 | inactive: 0.083
TUBAL3 (UniProt A6NHL2) | inactive: 0.152 | inactive: -0.062 | inactive: 0.005 | inactive: 0.094 | inactive: -0.106 | inactive: 0.121 | inactive: -0.033 | inactive: -0.207 | inactive: 0.006 | inactive: -0.028 | inactive: 0.144 | inactive: -0.497 | inactive: -0.052 | inactive: -0.11 | inactive: -0.013 | inactive: -0.061 | inactive: 0.03 | inactive: -0.067 |  | 
